From PMC8364686, “Safety, tolerability, pharmacokinetics and pharmacodynamics of single oral doses of BI 187004, an inhibitor of 11beta-hydroxysteroid dehydrogenase-1, in healthy male volunteers with overweight or obesity” (Clinical Diabetes and Endocrinology, 2021)
Values joined by “and” are separate entries in the source; they are usually repeats but may differ in a detail not shown here. Equal entries are not always repeated. This continues a long series; more values of the same kind are listed elsewhere.

Experiment: Plasma pharmacokinetics of BI 187004 after single oral doses (LC–MS/MS)
Details: individual subjects

N#Cc1ccc2c(c1)[C@H]1CCCN(C(=O)c3ccc4[nH]cnc4c3)[C@H]1C2 [BI 187004]
BI 187004 plasma concentrations (80 mg single oral, planned time 0.5 h): 304 nmol/L and 1310 nmol/L and 738 nmol/L and 4480 nmol/L and 539 nmol/L and 3280 nmol/L | BI 187004 plasma concentrations (80 mg single oral, planned time 1 h): 771 nmol/L and 1380 nmol/L and 2340 nmol/L and 4770 nmol/L and 2250 nmol/L and 3430 nmol/L | BI 187004 plasma concentrations (80 mg single oral, planned time 1.5 h): 958 nmol/L and 1380 nmol/L and 2790 nmol/L and 4150 nmol/L and 2290 nmol/L and 3410 nmol/L | BI 187004 plasma concentrations (80 mg single oral, planned time 2 h): 1000 nmol/L and 1460 nmol/L and 2570 nmol/L and 3590 nmol/L and 2230 nmol/L and 3110 nmol/L | BI 187004 plasma concentrations (80 mg single oral, planned time 2.5 h): 1200 nmol/L and 1450 nmol/L and 2940 nmol/L and 3200 nmol/L and 2640 nmol/L and 2650 nmol/L | BI 187004 plasma concentrations (80 mg single oral, planned time 3 h): 1050 nmol/L and 1360 nmol/L and 2570 nmol/L and 3340 nmol/L and 2360 nmol/L and 2750 nmol/L | BI 187004 plasma concentrations (80 mg single oral, planned time 4 h): 936 nmol/L and 1380 nmol/L and 2750 nmol/L and 3200 nmol/L and 2220 nmol/L and 2700 nmol/L | BI 187004 plasma concentrations (80 mg single oral, planned time 5 h): 905 nmol/L and 1350 nmol/L and 2080 nmol/L and 3210 nmol/L and 2000 nmol/L and 2350 nmol/L | BI 187004 plasma concentrations (80 mg single oral, planned time 6 h): 930 nmol/L and 1210 nmol/L and 2080 nmol/L and 2460 nmol/L and 1750 nmol/L and 1990 nmol/L | BI 187004 plasma concentrations (80 mg single oral, planned time 8 h): 1100 nmol/L and 1420 nmol/L and 2190 nmol/L and 2840 nmol/L and 1630 nmol/L and 1750 nmol/L | BI 187004 plasma concentrations (80 mg single oral, planned time 10 h): 1040 nmol/L and 1200 nmol/L and 1870 nmol/L and 2570 nmol/L and 1370 nmol/L and 1540 nmol/L | BI 187004 plasma concentrations (80 mg single oral, planned time 12 h): 1000 nmol/L and 959 nmol/L and 1680 nmol/L and 2210 nmol/L and 1190 nmol/L and 1230 nmol/L | BI 187004 plasma concentrations (80 mg single oral, planned time 24 h): 767 nmol/L and 605 nmol/L and 1100 nmol/L and 1560 nmol/L and 856 nmol/L and 673 nmol/L | BI 187004 plasma concentrations (80 mg single oral, planned time 36 h): 223 nmol/L and 284 nmol/L and 538 nmol/L and 678 nmol/L and 417 nmol/L and 327 nmol/L | BI 187004 plasma concentrations (80 mg single oral, planned time 48 h): 134 nmol/L and 163 nmol/L and 332 nmol/L and 596 nmol/L and 248 nmol/L and 211 nmol/L | BI 187004 plasma concentrations (80 mg single oral, planned time 72 h): 46.3 nmol/L and 49.0 nmol/L and 81.2 nmol/L and 234 nmol/L and 82.3 nmol/L and 46.9 nmol/L | BI 187004 plasma concentrations (80 mg single oral, planned time 96 h): 23.3 nmol/L and 18.8 nmol/L and 24.3 nmol/L and 110 nmol/L and 81.0 nmol/L and 11.9 nmol/L | BI 187004 plasma concentrations (160 mg single oral, planned time 0.5 h): 5710 nmol/L and 8780 nmol/L and 4660 nmol/L and 8640 nmol/L and 7950 nmol/L and 2520 nmol/L | BI 187004 plasma concentrations (160 mg single oral, planned time 1 h): 8460 nmol/L and 7170 nmol/L and 7510 nmol/L and 7770 nmol/L and 8740 nmol/L and 3920 nmol/L | BI 187004 plasma concentrations (160 mg single oral, planned time 1.5 h): 7110 nmol/L and 8830 nmol/L and 7270 nmol/L and 7780 nmol/L and 5190 nmol/L | BI 187004 plasma concentrations (160 mg single oral, planned time 2 h): 6610 nmol/L and 8640 nmol/L and 6360 nmol/L and 6910 nmol/L and 6660 nmol/L | BI 187004 plasma concentrations (160 mg single oral, planned time 2.5 h): 6250 nmol/L and 8030 nmol/L and 6070 nmol/L and 6820 nmol/L and 6270 nmol/L | BI 187004 plasma concentrations (160 mg single oral, planned time 3 h): 5820 nmol/L and 7450 nmol/L and 5770 nmol/L and 5860 nmol/L and 5330 nmol/L | BI 187004 plasma concentrations (160 mg single oral, planned time 4 h): 6210 nmol/L and 6040 nmol/L and 5530 nmol/L and 6750 nmol/L and 5060 nmol/L | BI 187004 plasma concentrations (160 mg single oral, planned time 5 h): 5220 nmol/L and 4630 nmol/L and 5160 nmol/L and 4950 nmol/L and 4850 nmol/L | BI 187004 plasma concentrations (160 mg single oral, planned time 6 h): 3980 nmol/L and 4420 nmol/L and 4830 nmol/L and 5320 nmol/L and 3430 nmol/L | BI 187004 plasma concentrations (160 mg single oral, planned time 8 h): 2580 nmol/L and 4030 nmol/L and 3800 nmol/L and 4580 nmol/L and 3680 nmol/L | BI 187004 plasma concentrations (160 mg single oral, planned time 10 h): 2950 nmol/L and 3120 nmol/L and 3410 nmol/L and 2810 nmol/L and 4290 nmol/L and 1940 nmol/L | BI 187004 plasma concentrations (160 mg single oral, planned time 12 h): 2810 nmol/L and 2940 nmol/L and 2920 nmol/L and 3640 nmol/L and 2890 nmol/L | BI 187004 plasma concentrations (160 mg single oral, planned time 24 h): 1530 nmol/L and 1410 nmol/L and 1660 nmol/L and 2690 nmol/L and 1440 nmol/L | BI 187004 plasma concentrations (160 mg single oral, planned time 36 h): 570 nmol/L and 655 nmol/L and 576 nmol/L and 476 nmol/L and 1390 nmol/L and 631 nmol/L | BI 187004 plasma concentrations (160 mg single oral, planned time 48 h): 344 nmol/L and 333 nmol/L and 359 nmol/L and 374 nmol/L and 1000 nmol/L and 329 nmol/L | BI 187004 plasma concentrations (160 mg single oral, planned time 72 h): 100 nmol/L and 113 nmol/L and 103 nmol/L and 121 nmol/L and 312 nmol/L and 85.9 nmol/L | BI 187004 plasma concentrations (160 mg single oral, planned time 96 h): 28.0 nmol/L and 32.1 nmol/L and 46.8 nmol/L and 31.7 nmol/L | BI 187004 plasma concentrations (240 mg single oral, planned time 0.5 h): 130 nmol/L and 7450 nmol/L and 4950 nmol/L and 6100 nmol/L and 8440 nmol/L and 4180 nmol/L | BI 187004 plasma concentrations (240 mg single oral, planned time 1 h): 440 nmol/L and 10700 nmol/L and 9740 nmol/L and 7600 nmol/L and 9250 nmol/L and 7180 nmol/L | BI 187004 plasma concentrations (240 mg single oral, planned time 1.5 h): 811 nmol/L and 8600 nmol/L and 9030 nmol/L and 7090 nmol/L and 6280 nmol/L and 6690 nmol/L | BI 187004 plasma concentrations (240 mg single oral, planned time 2 h): 543 nmol/L and 9220 nmol/L and 8860 nmol/L and 6350 nmol/L and 5400 nmol/L and 7210 nmol/L | BI 187004 plasma concentrations (240 mg single oral, planned time 2.5 h): 605 nmol/L and 8490 nmol/L and 8510 nmol/L and 6340 nmol/L and 5680 nmol/L and 8190 nmol/L | BI 187004 plasma concentrations (240 mg single oral, planned time 3 h): 388 nmol/L and 6980 nmol/L and 5360 nmol/L and 6510 nmol/L and 5530 nmol/L and 6150 nmol/L | BI 187004 plasma concentrations (240 mg single oral, planned time 4 h): 575 nmol/L and 5540 nmol/L and 8420 nmol/L and 5820 nmol/L and 5390 nmol/L and 7330 nmol/L | BI 187004 plasma concentrations (240 mg single oral, planned time 5 h): 494 nmol/L and 3960 nmol/L and 6570 nmol/L and 5820 nmol/L and 5040 nmol/L and 6780 nmol/L | BI 187004 plasma concentrations (240 mg single oral, planned time 6 h): 452 nmol/L and 5150 nmol/L and 6370 nmol/L and 5390 nmol/L and 2610 nmol/L and 5990 nmol/L | BI 187004 plasma concentrations (240 mg single oral, planned time 8 h): 181 nmol/L and 4780 nmol/L and 5380 nmol/L and 3960 nmol/L and 3640 nmol/L and 5130 nmol/L | BI 187004 plasma concentrations (240 mg single oral, planned time 10 h): 313 nmol/L and 4080 nmol/L and 5800 nmol/L and 3310 nmol/L and 3060 nmol/L and 4160 nmol/L | BI 187004 plasma concentrations (240 mg single oral, planned time 12 h): 258 nmol/L and 3440 nmol/L and 3900 nmol/L and 3170 nmol/L and 2610 nmol/L and 2180 nmol/L | BI 187004 plasma concentrations (240 mg single oral, planned time 24 h): 2500 nmol/L and 2630 nmol/L and 1720 nmol/L and 1530 nmol/L and 2460 nmol/L | BI 187004 plasma concentrations (240 mg single oral, planned time 36 h): 567 nmol/L and 1200 nmol/L and 1340 nmol/L and 787 nmol/L and 677 nmol/L and 987 nmol/L | BI 187004 plasma concentrations (240 mg single oral, planned time 48 h): 255 nmol/L and 755 nmol/L and 794 nmol/L and 376 nmol/L and 321 nmol/L and 545 nmol/L | BI 187004 plasma concentrations (240 mg single oral, planned time 72 h): 54.1 nmol/L and 323 nmol/L and 312 nmol/L and 54.4 nmol/L and 71.7 nmol/L and 126 nmol/L | BI 187004 plasma concentrations (240 mg single oral, planned time 96 h): 15.8 nmol/L and 181 nmol/L and 68.2 nmol/L and 18.2 nmol/L and 36.4 nmol/L | BI 187004 plasma concentrations (360 mg single oral, planned time 0.5 h): 15400 nmol/L and 16800 nmol/L and 11000 nmol/L and 5800 nmol/L and 7980 nmol/L and 12200 nmol/L | BI 187004 plasma concentrations (360 mg single oral, planned time 1 h): 18400 nmol/L and 12000 nmol/L and 14500 nmol/L and 7170 nmol/L and 13600 nmol/L and 13000 nmol/L | BI 187004 plasma concentrations (360 mg single oral, planned time 1.5 h): 15900 nmol/L and 10800 nmol/L and 13900 nmol/L and 6450 nmol/L and 12400 nmol/L and 9540 nmol/L | BI 187004 plasma concentrations (360 mg single oral, planned time 2 h): 14500 nmol/L and 10700 nmol/L and 10900 nmol/L and 6660 nmol/L and 10400 nmol/L and 12300 nmol/L | BI 187004 plasma concentrations (360 mg single oral, planned time 2.5 h): 14600 nmol/L and 9770 nmol/L and 14100 nmol/L and 6880 nmol/L and 5660 nmol/L and 10700 nmol/L | BI 187004 plasma concentrations (360 mg single oral, planned time 3 h): 12900 nmol/L and 9220 nmol/L and 7970 nmol/L and 6300 nmol/L and 9450 nmol/L and 10300 nmol/L | BI 187004 plasma concentrations (360 mg single oral, planned time 4 h): 12200 nmol/L and 8290 nmol/L and 10400 nmol/L and 5670 nmol/L and 10100 nmol/L and 10900 nmol/L | BI 187004 plasma concentrations (360 mg single oral, planned time 5 h): 6320 nmol/L and 8770 nmol/L and 8180 nmol/L and 4810 nmol/L and 7560 nmol/L and 9630 nmol/L | BI 187004 plasma concentrations (360 mg single oral, planned time 6 h): 8320 nmol/L and 6450 nmol/L and 5790 nmol/L and 6310 nmol/L | BI 187004 plasma concentrations (360 mg single oral, planned time 8 h): 7780 nmol/L and 6280 nmol/L and 5060 nmol/L and 6260 nmol/L and 6210 nmol/L | BI 187004 plasma concentrations (360 mg single oral, planned time 10 h): 7680 nmol/L and 6390 nmol/L and 4960 nmol/L and 3360 nmol/L and 6280 nmol/L and 4310 nmol/L | BI 187004 plasma concentrations (360 mg single oral, planned time 12 h): 5510 nmol/L and 4380 nmol/L and 3780 nmol/L and 4600 nmol/L and 4650 nmol/L | BI 187004 plasma concentrations (360 mg single oral, planned time 24 h): 4740 nmol/L and 3110 nmol/L and 1790 nmol/L and 2300 nmol/L and 3010 nmol/L and 2090 nmol/L | BI 187004 plasma concentrations (360 mg single oral, planned time 36 h): 1970 nmol/L and 1990 nmol/L and 830 nmol/L and 1300 nmol/L and 1680 nmol/L and 1090 nmol/L | BI 187004 plasma concentrations (360 mg single oral, planned time 48 h): 1470 nmol/L and 1220 nmol/L and 740 nmol/L and 997 nmol/L and 587 nmol/L | BI 187004 plasma concentrations (360 mg single oral, planned time 72 h): 497 nmol/L and 516 nmol/L and 69.1 nmol/L and 235 nmol/L and 326 nmol/L and 164 nmol/L | BI 187004 plasma concentrations (360 mg single oral, planned time 96 h): 174 nmol/L and 170 nmol/L and 16.8 nmol/L and 61.1 nmol/L and 102 nmol/L and 46.3 nmol/L
